The nature of the data set: general procedure: solution-phase peptide synthesis; 1-ethyl-3-(3-dimethylaminopropyl)carbodiimide hydrochloride / 1-hydroxybenzotria.

“(3S, 4S)-N-Boc-4-amino-3-hydroxy-5-(S-all-trans-farnesyl)-1-(methyl L-Val-L-Ile-L-Met) pentanoic Amide” came in with a step yield (coupling step) of 70%. As for “(4S)-N-Boc-4-amino-2 2-difluoro-3-hydroxy-5-(S-all-trans-farnesyl)-1-(methyl L-Val-L-Ile-L-Met)pentanoic Amide”, the step yield (coupling step) amounted to 19%. “(4S)-N-Boc-4-amino-2,2-difluoro-3-hydroxy-5-(S-all-trans-farnesyl)-1-(L-Val-L-Ile-L-Met)pentanoic Amide” yielded a step yield (late stage modification step) of 40%.

Values taken from US5789541A (President and Fellows of Harvard College, priority 1995, dated 1998).
